In PMC4806301:
Results are given in words; binding and its absence hold for the method and conditions named. In cells and extracts the contact can be indirect.

Chains of the proteins cited; added tags and fusions are not shown.
UniProt O00429: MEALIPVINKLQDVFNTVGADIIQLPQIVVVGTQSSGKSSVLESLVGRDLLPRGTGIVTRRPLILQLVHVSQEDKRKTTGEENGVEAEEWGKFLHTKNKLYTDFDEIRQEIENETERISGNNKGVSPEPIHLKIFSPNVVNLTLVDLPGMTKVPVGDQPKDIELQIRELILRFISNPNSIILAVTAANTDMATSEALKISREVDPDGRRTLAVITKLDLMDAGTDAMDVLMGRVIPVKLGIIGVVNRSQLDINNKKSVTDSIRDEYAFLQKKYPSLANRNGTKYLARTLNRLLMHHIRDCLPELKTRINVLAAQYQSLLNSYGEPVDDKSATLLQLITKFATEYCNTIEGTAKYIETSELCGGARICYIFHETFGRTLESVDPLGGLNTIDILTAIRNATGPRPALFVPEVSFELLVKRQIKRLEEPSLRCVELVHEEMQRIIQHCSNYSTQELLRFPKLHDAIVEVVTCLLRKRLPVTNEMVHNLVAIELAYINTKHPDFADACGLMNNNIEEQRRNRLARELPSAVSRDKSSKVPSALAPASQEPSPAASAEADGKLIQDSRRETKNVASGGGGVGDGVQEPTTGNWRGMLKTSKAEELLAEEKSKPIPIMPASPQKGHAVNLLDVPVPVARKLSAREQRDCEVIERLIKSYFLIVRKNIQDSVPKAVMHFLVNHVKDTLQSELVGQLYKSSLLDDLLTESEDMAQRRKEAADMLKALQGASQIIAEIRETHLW

Molecular target: NS5A of the HCV sub-genomic replicon in JL377-2 cells (hepatitis C virus (sub-genotype 1b, isolate Con1)) (UniProt Q9WMX2)
Experiment: co-IP; Huh-7 or JL377-2 (HCV replicon) cell lysates in RIPA buffer (20 mM Tris pH 8.0, 100 mM NaCl, 0.1% NP-40) with 1 mM MgCl and 0.1 mM GDP or GTPγS; immunoprecipitation with α-NS5A antibody (anti-HA as control) and protein A-sepharose, at least 4 hours at 4 °C; blots for endogenous Drp1 and mitofusin 2

With “Dynamin-related protein 1 (Drp1), endogenous (from UniProt O00429 1-736)” as the substance, how does the binding read?
Its binding is “no binding”.
